From patent US20260258333A1, “MULTI-ORGAN "BODY ON A CHIP" APPARATUS UTILIZING A COMMON MEDIA” (Wake Forest University Health Sciences, priority 2016, published 2026)

Test system: liver organoids (cytochrome p450 isoforms)
Conditions: primarily by CYP2C19 and CYP3A4

CN1C(=O)CN=C(c2ccccc2)c2cc(Cl)ccc21 [diazepam]
metabolites formed by liver organoids: metabolism of diazepam into temazepam, nordiazepam, and oxazepan
